Reference: patent US7019139B2, “Quinolinones and uses thereof” (ARIAD Pharmaceuticals, Inc., priority 2001, dated 2006)
For at least one compound, name, drawing or mass did not settle the structure.

Assay: Hydroxyapatite assay (hydroxyapatite adsorption chromatography, bone-targeting potential)
Format: binding
Conditions: corrected K = (retention time-void time)/void on TSK-Gel HA 1000 HPLC column; linear gradient 10 mM to 500 mM sodium phosphate, 0.15 N NaCl, pH 6.8
Method: Hydroxyapatite is the principal mineral component of bone. Hydroxyapatite adsorption chromatography is used as an assay to evaluate the bone-targeting potential of both individual bone-targeting moieties (“monomers”) and of pharmaceuticals incorporating bone-targeting groups.
This K value is corrected using two reference compounds to correct from inter-column and inter-system variation to obtain a K′ value.
Reference Compounds: K′ values were determined for known bone targeted compounds, the bisphosphonate, alendronate and tetracycline.

CN(C)[C@@H]1C(O)=C(C(N)=O)C(=O)[C@@]2(O)C(O)=C3C(=O)c4c(O)cccc4[C@@](C)(O)[C@H]3C[C@@H]12 [tetracycline]
K′ value: 2.0
